# Taken from: PubChem BioAssay AID504784 (Drosophila RNAi Screening Center, 2011)
# Aim: 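Genome-wide knock-down for genes giving too much or too little stored lipid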 (primary screen)
# Cells: Drosophila Kc167 embryonic cells
# Reagents: long dsRNA against Drosophila genes, about 250 ng dsRNA per well
# Timing: 4 days
# Treatment: cells fed 400 µM oleic acid bound to BSA
# Measurement: 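Microscope images give a droplet-to-nucleus area ratio, taken as log and converted to a screen-wide B-score; higher values mean greater lipid storage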
# Scale: droplet/nuclear area B-score: higher = more stored lipid (overstorage)
# The screen tested about 17,000 reagents; below is an unselected part of those that have a named target and a result. 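Each column is one replicate's B-score; the combined score over replicates was not deposited, so single values may mislead.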 A plus sign joins genes that one reagent is predicted to hit.
target gene,dsRNA,"droplet/nuclear area B-score, replicate 1","droplet/nuclear area B-score, replicate 2","droplet/nuclear area B-score, replicate 3"
CG30345 (GeneID 246553),DRSC05144,-0.702,1.38,
Tbce (GeneID 35532),DRSC04897,0.735,-0.44,
PHDP (GeneID 37788),DRSC04635,0.408,0.625,
Idi (GeneID 42526),DRSC15918,-0.906,-0.908,
Kdm2 (GeneID 41090),DRSC14286,0.0344,13.8,
DIP-kappa (GeneID 318958),DRSC01336,-6.67,-4.1,
DIP-kappa (GeneID 318958),DRSC01337,-0.0814,0.526,
LysB (GeneID 38125),DRSC08673,-1.33,-0.914,
Aos1 (GeneID 41532),DRSC14113,0.981,4.55,
CG14933 + CG42486,DRSC02415,1.76,-1.31,
CG8042 (GeneID 38886),DRSC09676,-1.1,0.213,
CG31460 (GeneID 318747),DRSC14370,1.79,-0.322,
CG7298 (GeneID 40210),DRSC10802,0.0253,0.96,-0.111
CG4066 (GeneID 41493),DRSC15541,0.675,0.0118,
CG3726 (GeneID 31525),DRSC18320,-2.06,-1.97,-0.636
CG3726 (GeneID 31525),DRSC23143,1.1,-0.357,
mRpL52 (GeneID 35711),DRSC06585,-2.65,1.54,
pod1 (GeneID 31620),DRSC18362,-1.25,-0.833,-0.469
Tsp29Fa (GeneID 34211),DRSC03232,-0.655,1.61,
CG32548 (GeneID 32826),DRSC19627,-0.349,1.91,
CG32548 (GeneID 32826),DRSC19982,-0.145,0.325,
BaraA1 + BaraA2,DRSC05417,1.53,0.815,
kuk (GeneID 42063),DRSC15730,0.365,-0.0569,
Dis3l2 (GeneID 38034),DRSC08496,-0.937,1.2,
PIG-C (GeneID 38410),DRSC08241,0.131,-1.16,
PGRP-LE (GeneID 32534),DRSC20137,-0.259,-0.658,-1.44
CG43333 (GeneID 34830),DRSC01917,-0.664,1.66,
CG43333 (GeneID 34830),DRSC23265,1.52,1.51,
eIF5 (GeneID 32566),DRSC20165,1.09,0.865,0.0716
GATAe (GeneID 41945),DRSC14223,-2.33,-2.44,-0.41
GATAe (GeneID 41945),DRSC23209,0.619,-0.406,
KaiR1D (GeneID 42473),DRSC15516,0.345,0.00807,
Osi6 (GeneID 40760),DRSC12128,0.0464,-1.13,
Golgin97 (GeneID 36492),DRSC06895,1.14,-0.517,
CG2701 (GeneID 31261),DRSC18590,0.34,4.03,
fkh (GeneID 43383),DRSC16949,0.126,-1.2,
CG33299 (GeneID 2768912),DRSC01085,0.576,2,
CG7296 (GeneID 34469),DRSC03042,,-1.77,2.83
CG7296 (GeneID 34469),DRSC22343,3.31,-1.78,
CG10505 (GeneID 37428),DRSC04075,-0.679,-1.12,
CG30270 (GeneID 251324),DRSC22890,-2.16,0.981,
Zip71B (GeneID 39626),DRSC09686,-1.02,-0.989,
CR33315 (GeneID 3771801),DRSC22947,0.669,-0.000844,
CG33494 (GeneID 2768686),DRSC13715,1.39,0.462,
CG1572 (GeneID 32098),DRSC19686,-0.8,-0.94,-0.115
CG7275 (GeneID 39669),DRSC10796,-0.864,1.58,0.722
vimar (GeneID 35609),DRSC05026,-1.75,-1.68,
ND-MNLL (GeneID 31697),DRSC18159,0.667,0.41,
TotE (GeneID 35275),DRSC21355,-0.662,-0.624,
Lsp2 (GeneID 45326),DRSC09841,-0.958,-0.137,
Lsp2 (GeneID 45326),DRSC11216,-0.385,-0.527,
CD98hc (GeneID 40941),DRSC15453,1.65,2.18,
Sou (GeneID 37382),DRSC04356,0.4,1.68,
MYPT-75D (GeneID 40032),DRSC10743,0.00221,-1.42,0.00783
ATP7 (GeneID 32142),DRSC19819,-1.51,-1.48,-0.662
CG3690 (GeneID 31047),DRSC18170,0.0985,-0.753,
CG3690 (GeneID 31047),DRSC18641,0.244,-1.07,
AstC (GeneID 34537),DRSC02403,-1.3,0.489,
Lrrk (GeneID 42447),DRSC15816,,1.24,0.275
Lrrk (GeneID 42447),DRSC21971,1.67,0.0316,
lncRNA:bxd (GeneID 3772220),DRSC13176,-1.03,-0.355,
Prosbeta4R2 (GeneID 33451),DRSC00503,-0.0131,1.76,
CG30094 (GeneID 246452),DRSC22268,-0.173,0.188,
ph-p (GeneID 31181),DRSC18820,-0.63,-0.278,
Use1 (GeneID 39051),DRSC10180,1.31,2.05,
CG15890 (GeneID 32401),DRSC19737,-0.258,0.533,
CG11670 (GeneID 41608),DRSC14342,1.57,0.342,
CG3734 (GeneID 42318),DRSC15509,0.813,,
CG8414 (GeneID 36774),DRSC07168,-0.25,1.13,
CG7523 (GeneID 42125),DRSC16254,-1.25,-1.13,
PpV (GeneID 31582),DRSC18700,-1.25,-1.2,
PpV (GeneID 31582),DRSC23307,1.42,1.91,
Tsen34 + Trl,DRSC10014,0.97,-0.264,
Pym (GeneID 37780),DRSC22492,-0.256,0.0569,
Pym (GeneID 37780),DRSC23017,1.3,-0.0616,
dgt5 (GeneID 36364),DRSC07280,-0.261,1.64,
sut3 (GeneID 44268),DRSC07702,-0.807,1.27,
CG15203 (GeneID 32038),DRSC19650,0.0783,0.042,-1.15
Pxd (GeneID 2768671),DRSC16805,1.45,0.201,
CCAP-R (GeneID 2768688),DRSC14891,-1.19,0.568,
CCAP-R (GeneID 2768688),DRSC15967,0.185,-0.823,
CG14835 (GeneID 38832),DRSC10205,0.0746,-0.674,
CG4752 (GeneID 37569),DRSC04486,-0.332,-1.27,

Sorted by “droplet/nuclear area B-score, replicate 1” (ascending): 11 of the entries above
target gene,dsRNA,"droplet/nuclear area B-score, replicate 1","droplet/nuclear area B-score, replicate 2","droplet/nuclear area B-score, replicate 3"
CG7523 (GeneID 42125),DRSC16254,-1.25,-1.13,
PpV (GeneID 31582),DRSC18700,-1.25,-1.2,
ph-p (GeneID 31181),DRSC18820,-0.63,-0.278,
CG15890 (GeneID 32401),DRSC19737,-0.258,0.533,
CG8414 (GeneID 36774),DRSC07168,-0.25,1.13,
CG30094 (GeneID 246452),DRSC22268,-0.173,0.188,
Prosbeta4R2 (GeneID 33451),DRSC00503,-0.0131,1.76,
CG3734 (GeneID 42318),DRSC15509,0.813,,
Use1 (GeneID 39051),DRSC10180,1.31,2.05,
PpV (GeneID 31582),DRSC23307,1.42,1.91,
CG11670 (GeneID 41608),DRSC14342,1.57,0.342,
